± gives the standard deviation. This is a selection; strong and weak results do not stand in their true shares. Many entries were measured with a wide error.
Tested on: EfPiwi piRISC loaded with piRNA #1 (26 nt)
Test: pre-steady-state target cleavage rate (min^-1); guide: piRNA #1 5'p-UGAGGUAGUAGGUUGUAUAGUAUCCA; MIWI and MILI are mouse PIWI proteins and EfPiwi is from a freshwater sponge; tags in brackets are library labels; higher = faster piRNA-guided slicing of the target
Settings: auxiliary factor: 500 nM Ephydatia muelleri Gtsf1
In short: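 At 33 °C in HEPES–potassium acetate buffer, a transcribed, DNA-blocked target RNA library […] was exposed for 0–8 or 0–960 min to 1 nM active affinity-purified piRISC carrying a single synthetic guide, with or without 500 nM GTSF1 partner protein. Uncleaved targets were sequenced and normalised to depth and to weakly complementary targets. With three trials pooled and k3 capped at 0.0001 min^-1, a burst-and-steady-state fit produced the pre-steady-state cleavage rate.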

Sequence	pre-steady-state target cleavage rate
GGAGAGGUUACUAUACUACCUACUACCUCA	0.00488 ± 0.0024
GGAGACCUAUCUAUUCAACCUACUUCCUCA	0.0012 ± 0.0064
GGAGACCAUACUAUACAACCUACAUCCUCA	0.00325 ± 0.0028
GGAGACCUAACUAUACAACCUACUACACUCA	0.00419 ± 0.0048
GGAGACCUAUGAUAUCAAGGAACUACCUCA	0.000484 ± 0.013
GGAGACCUUUCUAUACAACCAACUACCUCA	0.00166 ± 0.0044
GGAGACCUAUCUUUACAAGCUACUACCUCA	0.0024 ± 0.0047
GGAGUGGAUACAAAACAACCUACUACCUCA	0.00279 ± 0.0043
GGAGACGAUACUAUUGUACCUACUACCUCA	0.00097 ± 0.0058
GGAGACCUAACUAUUCAAGCUACUACCUCA	0.000909 ± 0.0054
GGAGACCAUACAAUACAACCUACUACCACA	0.00247 ± 0.004
GGAGACCUAUGUAUACAACCUACUAGCACA	0.000224 ± 0.017
GGAGUGCGAUACUAUACAACCUACUACCUCA	0.136 ± 0.044
GGAGACGAUACUUUACAACCUACAACCUCA	0.0011 ± 0.0019
GGAGACCUUACUAUACAACCUACUUCCACA	0.00082 ± 0.0026
GGAGACGAAUCUAUACAACCUACUACCUCA	0.0517 ± 0.018
GGAGUGGAUACUAUACAACCUACAUACCUCA	0.00344 ± 0.0016
GGAGACGAUACUAUAGAACCUACUAGCUCA	0.00419 ± 0.0018
GGAGACCUAACUAUACAACCUACUACCGUCA	0.0162 ± 0.0091
GGAGACCAUACUAACAACCUACUACCUCA	0.00859 ± 0.0041
GGAGACCUUACUUAUACAACCUACUACCUCA	0.00736 ± 0.0041

As a working copy, some entries already given.
Sequence	pre-steady-state target cleavage rate
GGAGUGGAUACAAAACAACCUACUACCUCA	0.00279 ± 0.0043
GGAGACGAUACUAUUGUACCUACUACCUCA	0.00097 ± 0.0058
GGAGACCUAACUAUUCAAGCUACUACCUCA	0.000909 ± 0.0054

Following part:

Sequence	pre-steady-state target cleavage rate
GGAGACCUAUGUAUACCAACCUACUACCUCA	0.00258 ± 0.005
GGAGACCUUACUAUACAAGCUACUACGUCA	0.00235 ± 0.0032
GGAGAGGAUACUAUACUACCUAGUACCUCA	0.00301 ± 0.0017
GGAGACCUAUGAUUACAAGCUACUACCACA	0.00036 ± 0.011
GGAGACCUAUGAAUACAACCUACUACCCCA	0.00177 ± 0.0054
GGAGAGGUUUCUAUACAACCUACUACCUCA	0.00427 ± 0.004
GGAGUGGAUACUAUACAUCCUACUUCCUCA	0.00326 ± 0.0017
GGAGACCAUACUAUAGAACCUACUUCCUCA	0.00272 ± 0.0029
GGAGUGGAUACUAUUCAACCUACUACGUCA	0.00281 ± 0.0015
GGAGACCUUAGUAUACAACCUACUAGCUCA	0.00168 ± 0.0036
GGAGUGGAUACUAUACAACGUAGUACCUCA	0.00292 ± 0.0011
GGAGACCUAACUAUACAACCUACGUACCUCA	0.00159 ± 0.0055
GGAGACCUUACAAUACAACCUACUAGCUCA	0.00157 ± 0.005
GGAGACCAAACUAUAGAACCUACUACCUCA	0.00258 ± 0.0035
GGAGAGGAUACUAUACAACCUACUACCUACA	0.00995 ± 0.0044
GGAGACCUAUGUUACAACCUACUACCUCA	0.00291 ± 0.0044
GGAGACGAUUCUAUACAACCUACUACCUGA	0.00463 ± 0.0026
GGAGUGGAUACUAUAGAACGUACUACCUCA	0.00156 ± 0.0015
GGAGACGAUACUAUACAACCAACUACCUGA	0.00427 ± 0.0022
GGAGACCAUAGUAAACAACCUACUACCUCA	0.00482 ± 0.0034
GGAGACCUUAGUAAACAACCUACUACCUCA	0.00381 ± 0.0043

Fetched one by one from the entries so far, 2 records:
Sequence	pre-steady-state target cleavage rate
GGAGACCAAACUAUAGAACCUACUACCUCA	0.00258 ± 0.0035
GGAGACCUAACUAUACAACCUACGUACCUCA	0.00159 ± 0.0055

Later entries

Sequence	pre-steady-state target cleavage rate
GGAGUGGAUACUAUACAACCUACUACCUA	0.249 ± 0.092
GGAGACCUAUCUAUACUACGUACUACCUCA	0.00156 ± 0.0038
GGAGACCUAUCAAUACAACCUAGUACCUCA	0.000538 ± 0.005
GGAGACCUAACUAUACAACGUACAACCUCA	0.00218 ± 0.0047
GGAGACCUAUGAUAACAAGGAACUACCUCA	< 0.0001
GGAGUGGUUACUUUACAACCUACUACCUCA	0.00342 ± 0.0031
GGAGAGGAUACUAUACAACCUACAUGCUCA	0.00124 ± 0.0019
GGAGAGGAAUACUAUACAACCUACUACCUCA	0.0974 ± 0.034
GGAGACCUAUCUAUACAACCUACUAGCUCA	0.00116 ± 0.0027
GGAGACGAUACUAUACAACCUACUAGCCUCA	0.00485 ± 0.002
GGAGAGUAUACUAUACAACCUACUACCUCA	0.0182 ± 0.0087
GGAGACCUAUCUAUACAACAUACUACCUCA	0.00529 ± 0.0038
GGAGAGGAUACAAUAGAACCUACUACCUCA	0.00186 ± 0.0029
GGAGACCUUACUUUACAACCUACAACCUCA	0.000388 ± 0.0063
GGAGUGGAUACUUUUCAACCUACUACCUCA	0.00404 ± 0.0046
GGAGACCUAACUAUACAACCUACUACCCA	0.00326 ± 0.0026
GGAGACGAUACUAUUCAACCUACAACCUCA	0.0024 ± 0.0017
GGAGUGGAUACUUUACAACCUACUACGUCA	0.00202 ± 0.0021
GGAGUGCAUACUAUACAACCUACUACCACA	0.00342 ± 0.0028
GGAGUGGAUACUAUUCAACGUACUACCUCA	0.00373 ± 0.0014
GGAGACCUAUGAUAUGAGCCUACUACCUCA	0.000174 ± 0.01
